The text below walks through data of PubChem BioAssay AID258 (DTP/NCI, 2004).

The list does not hold the whole screen: it gathers tests that were run many times, whatever their T/C, doses with no T/C, and many T/C values between a quarter and a half above the control. Other doses and runs of a compound stand elsewhere. T/C: endpoint of the treated group in % of that of the vehicle group. Some doses have a count of surviving animals in place of a T/C: the source files T/C as zero there, which appears to mark a toxic dose or a test without result, not a measured value. Some survivor counts are full or nearly so, which does not show that the dose was tolerated: survival well below the control is almost never listed, so the zero probably covers shortened survival too. Survivors were counted at the toxicity check, usually on the fifth day, unless a day is given; later deaths do not show. Schedules are NCI's codes, read here as Q, the interval in days (D) or hours (H), X, the number of doses. Some schedule codes hold Z or #, which are not explained here. Where survival is the endpoint, the PubChem record calls one and a half times the control and up active, and a quarter to a half above the control has no call in these data; cut-offs in other NCI protocols can differ. Some doses were run more than once; the values are given in rising order. Additions like (4×) give the number of equal values in this list. Some T/C values carry the count of animals alive at the toxicity check (mostly the fifth day); without a count, all were alive then.

This assay concerns CD2F1 mice, L1210 leukemia sc, survival T/C. Description: NCI In Vivo Anticancer Drug Screen. Data for tumor model L1210 Leukemia (subcutaneous) in CD2F1 (CDF1) mice. Conditions: T/C endpoint: median survival time, higher T/C = longer survival. An outline of the steps:
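Antitumor activity is scored in tumor-bearing mice by comparing survival or tumor size of treated animals against vehicle-treated controls, reported as T/C.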

As to `O=P1(N(CCCl)CCCl)NCCCO1` (centres undefined), the T/C was 138 % of control (dose: 25.0 mg/kg/injection, schedule: Q01DX009 (ip), vehicle: saline); 139 % of control (dose: 25.0 mg/kg/injection, schedule: Q01DX009 (sc), vehicle: saline); 147 % of control (dose: 39.0 mg/kg/injection, schedule: Q## X Z (sc), vehicle: saline); 113, 114, 118, 119, 130 % of control (dose: 50.0 mg/kg/injection, schedule: Q01DX001 (ip), vehicle: saline); 147 % of control (dose: 65.0 mg/kg/injection, schedule: Q01DX001 (sc), vehicle: saline); 142 % of control (dose: 65.0 mg/kg/injection, schedule: Q07DX003 (sc), vehicle: saline, evaluated on day 7). The T/C runs as follows: (dose: 65.0 mg/kg/injection, schedule: Q07DX003 (sc), vehicle: saline, evaluated on day 38) 144 % of control; (dose: 65.0 mg/kg/injection, schedule: Q07DX Z (sc), vehicle: saline) 147 % of control; (dose: 100.0 mg/kg/injection, schedule: Q01DX001 (ip), vehicle: saline) 132, 133, 140, 141 % of control (2×); (dose: 200.0 mg/kg/injection, schedule: Q01DX001 (ip), vehicle: saline) 186, 226, 300 (2×), 319 % of control; (dose: 300.0 mg/kg/injection, schedule: Q## X Z (sc), vehicle: saline) 147 % of control; (dose: 500.0 mg/kg/injection, schedule: Q07DX Z (sc), vehicle: saline) 136 % of control [7 of 10 alive]. For the same molecule, the survivor count (dose: 500.0 mg/kg/injection, schedule: Q01DX001 (sc), vehicle: saline) is listed as 5 of 8.

For the molecule `COC(=O)C1(F)C(=O)NC(=O)NC1OC` (centres undefined), the T/C by setting is: (dose: 72.0 mg/kg/injection, schedule: Q01DX009 (ip), vehicle: Klucel (hydroxypropylcellulose) (HPC)) 143 % of control; (dose: 200.0 mg/kg/injection, schedule: Q01DX009 (ip), vehicle: Klucel (hydroxypropylcellulose) (HPC)) 129 % of control.

For `Nc1nc(=S)c2ncn(C3OC(CO)C(O)C3O)c2[nH]1` (centres undefined), the T/C is, setting by setting: (dose: 14.0 mg/kg/injection, schedule: Q01DX Z (sc), vehicle: other) 138 % of control; (dose: 23.0 mg/kg/injection, schedule: Q01DX Z (sc), vehicle: other) 138 % of control; (dose: 39.0 mg/kg/injection, schedule: Q01DX Z (sc), vehicle: other) 128 % of control.

As for `C[C@]12CCC(=O)C=C1CC[C@@H]1[C@@H]2[C@@H](O)C[C@@]2(C)[C@H]1CC[C@]2(O)C(=O)CO`, the survivor count runs as follows: (dose: 108.0 mg/kg/injection, schedule: Q01DX Z (sc), vehicle: methylcellulose (MC)) 4 of 10; (dose: 180.0 mg/kg/injection, schedule: Q01DX Z (sc), vehicle: methylcellulose (MC)) 3 of 10; (dose: 500.0 mg/kg/injection, schedule: Q01DX Z (sc), vehicle: methylcellulose (MC)) 3 of 10; (dose: 833.0 mg/kg/injection, schedule: Q01DX Z (sc), vehicle: methylcellulose (MC)) 5 of 10.

With `O=NN(CCCl)C(=O)NC1CCCCC1`, the T/C by setting is: (dose: 2.0 mg/kg/injection, schedule: Q01DX009 (ip), vehicle: saline + alcohol) 125 % of control; (dose: 3.0 mg/kg/injection, schedule: Q01DX Z (ip), vehicle: carboxymethylcellulose (CMC)) 133 and 137 % of control; (dose: 4.0 mg/kg/injection, schedule: Q01DX009 (sc), vehicle: saline + alcohol, evaluated on day 30) 149 % of control; (dose: 4.0 mg/kg/injection, schedule: Q01DX009 (sc), vehicle: saline + alcohol, evaluated on day 45) 168, 227, 250 % of control; (dose: 5.0 mg/kg/injection, schedule: Q01DX Z (iv), vehicle: carboxymethylcellulose (CMC)) 125 % of control; (dose: 7.5 mg/kg/injection, schedule: Q01DX009 (ip), vehicle: Klucel (hydroxypropylcellulose) (HPC)) 149 % of control. Further, the T/C is, setting by setting: (dose: 8.0 mg/kg/injection, schedule: Q01DX009 (sc), vehicle: saline + alcohol, evaluated on day 30) 203 % of control; (dose: 8.0 mg/kg/injection, schedule: Q01DX009 (sc), vehicle: saline + alcohol, evaluated on day 45) 219, 336, 512, 520 % of control; (dose: 23.0 mg/kg/injection, schedule: Q01DX001 (sc), vehicle: carboxymethylcellulose (CMC)) 125 % of control; (dose: 32.0 mg/kg/injection, schedule: Q01DX009 (ip), vehicle: saline + alcohol) 136 % of control; (dose: 32.0 mg/kg/injection, schedule: Q01DX009 (sc), vehicle: saline + alcohol) 146 % of control; (dose: 39.0 mg/kg/injection, schedule: Q01DX001 (sc), vehicle: carboxymethylcellulose (CMC)) 125 % of control. The T/C was 133 % of control (dose: 39.0 mg/kg/injection, schedule: Q01DX Z (ip), vehicle: carboxymethylcellulose (CMC)); 144 % of control (dose: 39.0 mg/kg/injection, schedule: Q01DX Z (iv), vehicle: carboxymethylcellulose (CMC)); 144 % of control (dose: 39.0 mg/kg/injection, schedule: Q01DX Z (sc), vehicle: carboxymethylcellulose (CMC)); 125 % of control (dose: 39.0 mg/kg/injection, schedule: Q07DX Z (sc), vehicle: carboxymethylcellulose (CMC)); 127 % of control (dose: 65.0 mg/kg/injection, schedule: Q01DX Z (oral), vehicle: carboxymethylcellulose (CMC)); 138 % of control (dose: 65.0 mg/kg/injection, schedule: Q01DX Z (sc), vehicle: carboxymethylcellulose (CMC)). The survivor count (dose: 60.0 mg/kg/injection, schedule: Q01DX009 (ip), vehicle: Klucel (hydroxypropylcellulose) (HPC)) is on record as 8 of 10 and the survivor count (dose: 120.0 mg/kg/injection, schedule: Q01DX009 (ip), vehicle: Klucel (hydroxypropylcellulose) (HPC)) is given as 8 of 10.

Regarding `C[C@H](N)C(=O)N[C@@H]1[C@H]2C(=C(O)C[C@@H](O)[C@@H]2O)C(=O)O[C@]1(C)C(Cl)Cl`, the T/C by setting is: (dose: 1.25 mg/kg/injection, schedule: Q01DX005 (iv), vehicle: water) 125 % of control; (dose: 1.5 mg/kg/injection, schedule: Q01DX009 (ip), vehicle: water) 149 % of control; (dose: 1.5 mg/kg/injection, schedule: Q01DX009 (sc), vehicle: water) 146 % of control; (dose: 2.5 mg/kg/injection, schedule: Q01DX005 (ip), vehicle: water) 139 % of control [5 of 6 alive]; (dose: 2.5 mg/kg/injection, schedule: Q01DX005 (iv), vehicle: water) 139 % of control; (dose: 24.0 mg/kg/injection, schedule: Q01DX009 (oral), vehicle: water) 135 % of control [5 of 6 alive]. The survivor count (dose: 5.0 mg/kg/injection, schedule: Q01DX005 (ip), vehicle: water) is on record as 0 of 6; the survivor count (dose: 5.0 mg/kg/injection, schedule: Q01DX005 (iv), vehicle: water) was 1 of 6; the survivor count (dose: 6.0 mg/kg/injection, schedule: Q01DX009 (ip), vehicle: water) was 0 of 6; the survivor count (dose: 6.0 mg/kg/injection, schedule: Q01DX009 (sc), vehicle: water) is recorded as 0 of 6; the survivor count (dose: 10.0 mg/kg/injection, schedule: Q01DX005 (ip), vehicle: water) is listed as 0 of 6; the survivor count (dose: 10.0 mg/kg/injection, schedule: Q01DX005 (iv), vehicle: water) is 0 of 6. In addition, the survivor count (dose: 12.0 mg/kg/injection, schedule: Q01DX009 (sc), vehicle: water) is given as 0 of 6.

Turning to `CC[C@H](c1ccc(O)cc1)[C@@H](CC)c1ccc(O)cc1`, the survivor count reads like this: (dose: 216.0 mg/kg/injection, schedule: Q01DX Z (sc), vehicle: methylcellulose (MC)) 1 of 10; (dose: 360.0 mg/kg/injection, schedule: Q01DX Z (sc), vehicle: methylcellulose (MC)) 4 of 10; (dose: 600.0 mg/kg/injection, schedule: Q01DX Z (sc), vehicle: methylcellulose (MC)) 3 of 10; (dose: 1000.0 mg/kg/injection, schedule: Q01DX Z (sc), vehicle: methylcellulose (MC)) 6 of 10.
